According to patent publication US20130273046A1:
Results are given in words; binding and its absence hold for the method and conditions named. Some entries that bind do so weakly or less than the wild type. Sequences can lack the tags named with a protein.

Biological target: T1, EDAR-GPI proteins (portions of human EDAR fused to the C-terminal portion of TRAIL-R3 with its GPI-addition sequence) on 293T cells (human) (UniProt O14798)
T1 sequence (chain, glycosylphosphatidylinositol (GPI) anchor at the C-terminus): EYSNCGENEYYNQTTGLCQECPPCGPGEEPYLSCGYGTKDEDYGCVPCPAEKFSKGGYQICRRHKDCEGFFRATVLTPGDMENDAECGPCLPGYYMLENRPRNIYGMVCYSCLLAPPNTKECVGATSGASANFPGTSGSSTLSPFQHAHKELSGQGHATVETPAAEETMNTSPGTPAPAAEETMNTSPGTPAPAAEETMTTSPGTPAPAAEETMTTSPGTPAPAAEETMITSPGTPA
Test: FACS on transfected 293T cells (FIG. 11)

B1: mAbEDAR2 (antibody, IgG1, V domains shown)
VH: QVQLQQPGAELVKPGASVKLSCKASGYTFTSYWMQWVKQRPGQGIEWIGEIDPSDSYTYYNQKFKGKATLTIDKSSSTAYMQLSSLTSEDSAVYYCSRKNYYRGMDYWGQGTSVTVSS
VL: DVLMTQTPLSLPVSLGDQASISCRSSQNIVQSNGNTYLEWYLQKPGQSPKLLIYKVSNRFSGVPDRFSGSGSGTDFTLKISRVEADDLGVYYCFQVSHVPYTFGGGTKLEIKR
binding: binds
